{"source": "PubChem BioAssay AID504834", "about": "(National Center for Advancing Translational Sciences (NCATS), 2011)", "note": "“And” between values parts separate entries of the source, which are not always exact repeats. Identical values can stand only once. Among all 320,000 compounds or so, about 22,000 (6.9%) were called active. This list was built around the results that the source calls inconclusive (neither active nor inactive); the mix of calls is not that of the screen. Calls follow the shape of the dose curve; as a rule, active = well fitted inhibition curve with a large enough effect; inconclusive = small, poorly fitted or top-dose-only effect, or another doubt; inactive = no such curve, though single readings can be large or run the other way. Where the call is inconclusive, the potency comes from a doubtful curve fit. % is scaled to controls: 0 for no effect and ±100 for the full control effect; potency is read from the fitted curve at half-maximal effect.", "data": [{"assay": "Primary qHTS for delayed death inhibitors of the malarial parasite plastid, 96 hour incubation", "settings": "P. falciparum luciferase reporter growth; series mostly up to 28.7 µM; activity change, negative = inhibition: at the top concentration", "method_in_brief": "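Plates of compound plus infected erythrocytes (2% hematocrit, 0.05% parasitemia final) incubate 96 hours, 37 C, 5% CO2. Detection reagent added; reduced luminescence from the parasites' luciferase reporter flags inhibition.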", "values": [{"compound": "O=C1Cc2ccccc2Sc2c(OCCN3CCCCC3)cccc21", "Potency": "inconclusive: 14.7 µM [inhibitor, single point]"}, {"compound": "Oc1c(Cl)cc(Cl)cc1CNc1nccs1", "Potency": "inconclusive: 10.4 µM [inhibitor, partial curve]"}, {"compound": "O=C(Nc1cc(Cl)ccc1-n1cncn1)c1cccc(S(=O)(=O)N2CCOCC2)c1", "Potency": "inconclusive: 16.5 µM [inhibitor, single point]"}, {"compound": "CCOc1cc(N2CCOCC2)c(OCC)cc1NC(=O)c1ccc(=O)n(Cc2ccccc2)n1", "Potency": "inconclusive: 16.5 µM [inhibitor, single point]"}, {"compound": "COCc1ccc(CN2CCCCC2C(=O)Nc2ccc(Oc3ccccc3)nc2)o1", "note": "(stereo not drawn)", "Potency": "inconclusive: 0.294 µM [inhibitor, full curve, poor fit]"}, {"compound": "CC(C)Sc1nnc(CNC(=O)C23CC4CC(CC(C4)C2)C3)n1Cc1ccccc1", "Potency": "inconclusive: 1.17 µM [inhibitor, partial curve, poor fit]"}, {"compound": "Cc1nc2ncccn2c1-c1csc(Nc2cccc(C(=O)O)c2)n1", "Potency": "inconclusive: 18.5 µM [inhibitor, single point]"}, {"compound": "Cc1cccc(Nc2nnc(SCC(=O)NC3CCCc4ccccc43)s2)c1", "note": "(stereo not drawn)", "Potency": "inconclusive: 13.1 µM [inhibitor, partial curve, poor fit]"}, {"compound": "CCCCCCOC(=O)C(C#N)c1nc2ccccc2nc1N1CCN(C)CC1", "note": "(stereo not drawn)", "Potency": "inconclusive: 8.28 µM [inhibitor, partial curve, poor fit] and inconclusive: 11.7 µM [inhibitor, single point]"}, {"compound": "Cc1cccc(OCC(=O)Nc2ccc3oc(=O)ccc3c2)c1", "activity change, negative = inhibition": "inactive: -0.882%"}, {"compound": "COc1cccc(N2CCN(C(=O)c3ccc(-c4ccccc4)cc3)CC2)c1", "Potency": "inconclusive: 14.7 µM [inhibitor, partial curve, poor fit]"}, {"compound": "O=C(CCc1cn2ccccc2n1)NC1CCCc2c1cnn2-c1ccccc1F", "note": "(stereo not drawn)", "Potency": "active: 13.1 µM"}, {"compound": "COc1ccc(CCN(CC(=O)NC(C)(C)C)C(=O)Cn2nnc(-c3ccc(C)o3)n2)cc1OC", "Potency": "inconclusive: 10.4 µM [inhibitor, single point]"}, {"compound": "Cc1ccccc1-n1c(SCC(=O)N(C)C2CCS(=O)(=O)C2)nc2ccccc2c1=O", "note": "(stereo not drawn)", "activity change, negative = inhibition": "inactive: 8.86%"}, {"compound": "COc1ccc(C(C)=O)cc1COC(=O)c1ccc(S(=O)(=O)N(C)C)cc1", "Potency": "inconclusive: 13.1 µM [inhibitor, partial curve, poor fit]"}, {"compound": "CCOc1cc(CNCc2cc(OC)cc(OC)c2)ccc1OC", "Potency": "inconclusive: 9.28 µM [inhibitor, partial curve, poor fit]"}, {"compound": "COc1ccc(C2=NOC(Cn3nc(-c4ccccc4C)cc3C(=O)O)C2)cc1", "note": "(stereo not drawn)", "Potency": "inconclusive: 2.62 µM [inhibitor, single point]"}, {"compound": "CCOC(=O)C1=C(C)NC(SCC(=O)O)=C(C#N)C1c1ccco1", "note": "(stereo not drawn)", "activity change, negative = inhibition": "inactive: 3.53%"}, {"compound": "O=S(=O)(NCC(c1cccnc1)N1CCc2ccccc2C1)c1ccccc1", "note": "(stereo not drawn)", "activity change, negative = inhibition": "inactive: 49.7%"}, {"compound": "CC(C)Cn1c(SC(C)C(=O)NC2CC2)nnc1-c1ccccc1F", "note": "(stereo not drawn)", "Potency": "inconclusive: 11.7 µM [inhibitor, single point]"}, {"compound": "CCOC(=O)c1nnc2cc(-c3ccccc3)nn2c1C", "Potency": "active: 14.7 µM"}, {"compound": "COc1ccccc1N(CC(=O)NCC1CCCO1)C(=O)CNS(=O)(=O)c1ccc(C)cc1", "note": "(stereo not drawn)", "Potency": "inconclusive: 0.0522 µM [inhibitor, full curve, poor fit]"}, {"compound": "CCn1c(-c2ccccc2)ccc(C#N)c1=O", "activity change, negative = inhibition": "inactive: 22.6%"}, {"compound": "CC(C)(C)C(=O)OC/C(N)=N/OC(=O)c1ccc(Cl)cc1", "Potency": "inconclusive: 10.4 µM [inhibitor, single point]"}, {"compound": "Cc1[nH]n(-c2ccccc2)c(=O)c1/C=N/O", "Potency": "inconclusive: 10.4 µM [inhibitor, single point]"}, {"compound": "O=C(CCN1CCOCC1)NNC(=S)NC(=O)c1ccccc1", "Potency": "inconclusive: 2.62 µM [inhibitor, full curve, poor fit]"}, {"compound": "Cc1ccc2c(c1)C(=O)CC1(CCCCCC1)O2", "activity change, negative = inhibition": "inactive: 80.3%"}, {"compound": "COC(=O)N(c1ccccc1)P1(=S)OCCO1", "Potency": "inconclusive: 18.5 µM [inhibitor, single point]"}, {"compound": "CCOC(=O)N1CCN(CCCc2ccccc2)CC1", "activity change, negative = inhibition": "inactive: 3.36%"}, {"compound": "O=C(O)c1ccc(Cl)c(S(=O)(=O)N(Cc2ccccc2)c2ccc(Cl)cc2)c1", "activity change, negative = inhibition": "inactive: -12.9%"}, {"compound": "CCOc1ccc(NC(=O)CN(C)C(=O)CCNC(=O)c2ccco2)cc1OCC", "activity change, negative = inhibition": "inactive: -0.747%"}, {"compound": "CCOc1ccc2nc(SCC(=O)NC(=O)NCc3ccco3)[nH]c2c1", "Potency": "inconclusive: 0.0033 µM [inhibitor, full curve, poor fit]"}, {"compound": "O=C(NC1(Cc2ccccc2)CCN(Cc2ccc(-c3ccccc3)cc2)C1=O)c1ccccc1", "note": "(stereo not drawn)", "Potency": "inconclusive: 16.5 µM [inhibitor, single point]"}, {"compound": "O=C(Nc1ccc(F)cc1F)c1cc2n(n1)C(C(F)(F)F)C1CCCCC1N2", "note": "(stereo not drawn)", "activity change, negative = inhibition": "inactive: -13.5%"}, {"compound": "CCC(C)Nc1c2c(nc3c(-c4ccccc4)c(C)nn13)CCC2", "note": "(stereo not drawn)", "Potency": "inconclusive: 0.294 µM [inhibitor, full curve, poor fit]"}, {"compound": "CC(C)COC(=O)c1cccc2c1-c1ccccc1/C2=N\\O", "Potency": "inconclusive: 5.86 µM [inhibitor, partial curve, poor fit]"}, {"compound": "Cc1ccc(NC(=O)CCl)cc1S(=O)(=O)N1CCCCCC1", "Potency": "active: 9.28 µM"}, {"compound": "CCCCNC(=O)C1CCCN(S(=O)(=O)CC)C1", "note": "(stereo not drawn)", "Potency": "inconclusive: 7.38 µM [inhibitor, partial curve, poor fit]"}, {"compound": "OCCC1CN(Cc2c(F)cccc2Cl)CCN1C1CCCCC1", "note": "(stereo not drawn)", "Potency": "inconclusive: 14.7 µM [inhibitor, single point]"}, {"compound": "CN1CCCC(n2nc(Cc3ccc(Cl)cc3)c3ccccc3c2=O)CC1", "note": "(stereo not drawn)", "Potency": "inconclusive: 13.5 µM [inhibitor, partial curve, poor fit]"}, {"compound": "COC(=O)Cc1csc(NC(=O)CSc2nnc3ccccn23)n1", "Potency": "inconclusive: 14.7 µM [inhibitor, single point]"}, {"compound": "COc1ccc(-c2c([C@H]3[C@@H]4C=CCC[C@@]4(C)C(=O)N3Cc3ccccc3)ccc3ccccc23)cc1OC", "Potency": "active: 5.22 µM"}, {"compound": "CCOC(=O)N/N=C/c1cc(C)n(-c2ccccc2)c1C", "Potency": "inconclusive: 16.5 µM [inhibitor, single point]"}, {"compound": "Clc1nssc1=Nc1ccc(Br)cc1", "activity change, negative = inhibition": "inactive: -27%"}, {"compound": "CCOc1cc(-c2noc(CCC(=O)NCC3CCCO3)n2)ccc1OC", "note": "(stereo not drawn)", "Potency": "inconclusive: 5.22 µM [inhibitor, partial curve]"}, {"compound": "Cc1ccc(S(=O)(=O)N2CCN(S(=O)(=O)N3CCCCCC3)CC2)cc1", "Potency": "inconclusive: 16.5 µM [inhibitor, single point]"}, {"compound": "Cc1ccc(C2(C)NC(=O)N(CC(=O)Nc3ccc(N4CCOCC4)cc3N3CCOCC3)C2=O)cc1", "note": "(stereo not drawn)", "Potency": "inconclusive: 9.28 µM [inhibitor, partial curve]"}, {"compound": "Cc1cc(N2CCCC2=O)ccc1S(=O)(=O)Nc1c(C)nn(C)c1C", "activity change, negative = inhibition": "inactive: 10.8%"}, {"compound": "c1ccc(-n2ncc3c(N4CCN(c5ccccn5)CC4)nc(N4CCOCC4)nc32)cc1", "Potency": "inconclusive: 0.928 µM [inhibitor, partial curve, poor fit]"}, {"compound": "COC(=O)c1sccc1NC(=O)C1CCCCC1C(=O)O", "note": "(stereo not drawn)", "Potency": "inconclusive: 18.5 µM [inhibitor, single point]"}, {"compound": "CCOc1ccc(C(CC(=O)O)NC(=O)c2cccs2)cc1", "note": "(stereo not drawn)", "Potency": "inconclusive: 18.5 µM [inhibitor, single point]"}, {"compound": "Cc1cc(=O)[nH]c(SCc2cc(=O)n3nc(C)sc3n2)n1", "Potency": "inconclusive: 8.28 µM [inhibitor, single point]"}, {"compound": "COc1ccc(-c2cc(C(F)(F)F)n3nc(C(=O)N4CCN5CCCC5C4)cc3n2)cc1OC", "note": "(stereo not drawn)", "Potency": "inconclusive: 0.117 µM [inhibitor, full curve, poor fit]"}, {"compound": "O=C(O)CC/C(=N\\Nc1ccc([N+](=O)[O-])cc1S(=O)(=O)N1CCOCC1)c1cccs1", "Potency": "inconclusive: 6.57 µM [inhibitor, partial curve]"}, {"compound": "CN1CCC2(CC1)Nc1nc(SCc3ccc(Cl)cc3)nn1C1=C2CN(C)CC1", "activity change, negative = inhibition": "inactive: -10.2%"}, {"compound": "Cc1ccc(C2=NC(C)(C)NC2=O)cc1", "activity change, negative = inhibition": "inactive: 69.7%"}, {"compound": "Cc1cc(C)cc(OC(C)C(=O)Nc2ccccc2C(=O)NCc2cccnc2)c1", "note": "(stereo not drawn)", "Potency": "inconclusive: 18.5 µM [inhibitor, single point]"}, {"compound": "Cc1ccc(CN2CC[C@H]3C=CCc4cccc(c43)C2)cc1", "Potency": "inconclusive: 2.62 µM [inhibitor, single point]"}, {"compound": "CCOC(=O)N1CCC(Nc2cccc(SC)c2)CC1", "Potency": "inconclusive: 18.5 µM [inhibitor, single point]"}, {"compound": "CCC/C(O)=C1\\C(=O)CC(c2ccccc2)CC1=NCCc1c(C)[nH]c2ccccc12", "note": "(stereo not drawn)", "Potency": "inconclusive: 9.28 µM [inhibitor, partial curve, poor fit]"}, {"compound": "COCCn1c(SCC(=O)N(C)c2ccccc2)nc2c([nH]c3ccccc32)c1=O", "Potency": "inconclusive: 0.294 µM [inhibitor, partial curve, poor fit]"}, {"compound": "CCCc1nc2oc3ccccc3c(=O)c2c(=O)n1-c1ccccc1", "activity change, negative = inhibition": "inactive: 314%"}, {"compound": "Cc1ccc(S(=O)(=O)N2CCCN(C(=O)CNC(=O)c3cccc(C)c3)CC2)cc1", "activity change, negative = inhibition": "inactive: -17.2%"}, {"compound": "Cc1ccc(CN2CCC(c3cc(-c4ccc(Cl)cc4)n[nH]3)CC2)cc1", "Potency": "inconclusive: 11.7 µM [inhibitor, single point]"}, {"compound": "S=c1[nH]cnc2scc(-c3ccccc3)c12", "Potency": "active: 0.329 µM"}, {"compound": "Cc1ccc(C)c(NCC(O)c2ccccc2)c1", "note": "(stereo not drawn)", "activity change, negative = inhibition": "inactive: 3.37%"}, {"compound": "O=C(Nc1ccccc1)c1ccc(-c2ccccc2C(F)(F)F)o1", "Potency": "inconclusive: 18.5 µM [inhibitor, single point]"}, {"compound": "CC1CN(S(=O)(=O)c2ccc(C(=O)NCCCn3ccnc3)cc2)CC(C)O1", "note": "(stereo not drawn)", "Potency": "inconclusive: 3.7 µM [inhibitor, partial curve, poor fit]"}]}]}
